According to patent US20260109688A1, “NOVEL ANTIBIOTIC COMPOUND” (SINTEF TTO AS, priority 2022, published 2026):
In brackets after ≈: the same amount, converted by molar mass.

How the values were obtained:
S. aureus ATCC 29213 = experiment: In vitro MIC bioassay (broth microdilution, 384 well); format: cell-based; conditions: Staphylococcus aureus, ATCC29213, read-out: MIC70 S. aureus ATCC 29213
Description: (§1) Minimal inhibitory concentrations against a selection of Gram-positive indicator organisms (MICs) were determined according to Clinical and Laboratory Standards Institute protocols by microdilution tests using in a 384 well format. The indicator strains were incubated in TSB medium over night until OD600-0.4, then diluted to OD600=0.1 in TSB medium and further 45× in assay medium (Mueller-Hinton broth, Difco). Inoculated medium was distributed into assay plates. Inoculated wells were added a 2× dilution series of either isolated compound or vancomycin (reference) diluted in DMSO, giving a final DMSO concentration in each well of 2.7%, and final concentrations of active compound between 0 and 540 μg/ml (23 different concentrations). Four parallels were assayed for each compound and concentration. 0.5 mg of the compound produced by strain M1152ΔmatAB (P08-G05_C16) was purified on preparative HPLC, and the pure compound was tested in bioassay against a panel of strains. The indicator organisms were M. luteus ATCC 9341, Staphylococcus aureus ATCC 29213, Staphylococcus aureus ATCC 43300 (MRSA), Enterococcus faecium CCUG 37832, Enterococcus faecium CTC 492.

[1] = tested on: S. aureus ATCC 43300 (MRSA); experiment: as above; format: cell-based; conditions: Staphylococcus aureus, read-out: MIC70 S. aureus ATCC 43300
Description: as §1

**Q.** Which MIC (S. aureus ATCC 29213) does the source give for CN[C@H](CC(C)C)C(=O)N[C@H]1C(=O)N[C@@H](CC(N)=O)C(=O)N[C@H]2C(=O)N[C@H]3C(=O)N[C@H](C(=O)N[C@H](C(=O)O)c4cc(O)cc(O)c4-c4cc3ccc4O)[C@H](O)c3ccc(c(Cl)c3)Oc3cc2cc(c3O[C@@H]2O[C@H](CO)[C@@H](O)[C@H](O)[C@H]2O[C@H]2C[C@](C)(N)[C@H](O)[C@H](C)O2)Oc2ccc(cc2Cl)[C@H]1O [Vancomycin, vancomycin] here?
**A.** Its MIC is 1.06 µg/mL (≈ 0.731 µM).

**Q.** And the MIC [1]?
**A.** The MIC was 1.06 µg/mL (≈ 0.731 µM).
